Measured values reported in publication PMC7555312, “Functional Characterization of Temporin-SHe, a New Broad-Spectrum Antibacterial and Leishmanicidal Temporin-SH Paralog from the Sahara Frog (Pelophylax saharicus)” (International Journal of Molecular Sciences, 2020).

FLPALAGIAGLLGKIF-NH2 [Temporin-SHe]
effect on main transition peak of MLVs (DSC) (peptide–lipid ratio 1:50): two-component main phase transition | effect on pretransition peak of MLVs (DSC) (peptide–lipid ratio 1:50): abolished | effect on pretransition peak of MLVs (DSC) (peptide–lipid ratio 1:100): abolished | effect on pretransition peak of MLVs (DSC) (peptide–lipid ratio 1:200): reduced

Where two headings read alike, the source gives them in different places. Where no end group is shown, it is not given here.
